Data on one substance can be found in patent publication US20110129476A1.

Chains of the proteins cited; added tags and fusions are not shown. Lines headed by an entry give the natural chain unless they say otherwise; changes in a name come on top. Residues count along the entry.
UniProt P20029, residues 20-655: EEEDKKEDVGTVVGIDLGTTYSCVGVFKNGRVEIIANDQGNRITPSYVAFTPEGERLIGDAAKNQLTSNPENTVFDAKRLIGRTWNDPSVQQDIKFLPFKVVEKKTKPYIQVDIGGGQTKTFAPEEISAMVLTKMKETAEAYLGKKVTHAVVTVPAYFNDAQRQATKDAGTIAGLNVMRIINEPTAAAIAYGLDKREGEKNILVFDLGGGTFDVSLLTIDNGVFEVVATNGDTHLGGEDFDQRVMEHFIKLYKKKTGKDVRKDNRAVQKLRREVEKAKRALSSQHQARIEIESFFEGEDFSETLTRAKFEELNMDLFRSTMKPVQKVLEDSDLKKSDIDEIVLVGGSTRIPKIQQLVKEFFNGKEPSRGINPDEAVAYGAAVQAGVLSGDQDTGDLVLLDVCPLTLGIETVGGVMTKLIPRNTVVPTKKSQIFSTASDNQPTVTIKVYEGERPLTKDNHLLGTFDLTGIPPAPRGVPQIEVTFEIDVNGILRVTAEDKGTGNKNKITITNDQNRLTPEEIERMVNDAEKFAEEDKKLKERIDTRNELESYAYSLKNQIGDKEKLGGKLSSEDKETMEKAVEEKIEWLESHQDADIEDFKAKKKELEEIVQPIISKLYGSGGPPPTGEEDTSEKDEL
UniProt Q9D8I1: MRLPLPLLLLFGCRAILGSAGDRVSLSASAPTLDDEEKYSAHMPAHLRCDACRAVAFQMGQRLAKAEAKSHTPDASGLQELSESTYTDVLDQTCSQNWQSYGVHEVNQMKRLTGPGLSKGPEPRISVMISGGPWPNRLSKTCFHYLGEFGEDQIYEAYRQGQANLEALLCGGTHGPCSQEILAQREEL

No constants are given. Whether binding was seen depends on the method and setting. Some results given as binding are weak or reduced against the parent protein; the word gives no strength.

Assay [1] deals with BiP, endogenous protein of murine K46 B cells (mouse) (UniProt P20029). The assay is described as follows: α-MZB1 Sepharose immunoprecipitation from K46 extracts, immunoblot (legend of FIG. 12). (In general: In western blotting, separated proteins are transferred to a membrane and probed.)
Assay [2] shares this target. Description: method not described at this place.

As to “MZB1 (marginal zone B1 B cell factor 1), endogenous protein of murine K46 mature B cells (from UniProt Q9D8I1 21-188)”, the binding result in assay [1] and in assay [2] was “binds” each time.
